The assay in a line: qHTS Assay for Lipid Storage Modulators in Drosophila S3 Cells.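 For cell number change: cells counted by Cell Tracker Red CMTPX staining in the red channel.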 The note with it: BODIPY lipid droplet fluorescence, 18-24 h; for cell number change: measured here: cell count max response, cells fed with added oleic acid. In a few lines:
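Drosophila S3 cells got compounds at several concentrations plus oleic acid (400 uM solution). Laser-scanning cytometry with 488 nm excitation read lipid droplets at 500-530 nm and cells at 575-640 nm. Percent activity was relative to 20 uM Triacsin C.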
Background: In qHTS, concentration-response curves come from the screen itself.

Where [1] appears, read: measured here: cell number channel AC50, cells fed with added oleic acid.
Where [2] appears, read: measured here: lipid fluorescence (Fed channel) AC50, cells fed with added oleic acid.

SMILES strings stand for the structures. This is one part of the list. The main result of the screen is listed elsewhere. These columns were measured beside it and carry no call. Most of these compounds were active or inconclusive in the main read-out, so they are no random draw. Potencies come from curve fits of mixed quality, noted in brackets.

Take `CC(C)(C)C(=O)/C(=C/c1ccncc1)n1cncn1`: the cell number change was -54.5%. Besides, the concentration at half-maximal activity (AC50) under setting [1] is 23.1 µM [falling, single point]. Also, under setting [2], the AC50 was 23.1 µM [falling, partial curve]. On to `Cc1cccc(C)c1NC(=O)c1cccc(N2C(=O)C3CCC(C)CC3C2=O)c1` (stereo not drawn), for which the cell number change is -18.8%. Besides, the AC50 under setting [2] was 0.13 µM [rising, full curve, poor fit]. `COC(=O)c1cc2occc2n1CC(=O)Nc1ccc(OC)c(OC)c1OC`: the cell number change is 4.96%. For the compound `O=C(Nc1ccccc1F)c1ccc(S(=O)(=O)NCC2CCCO2)cc1` (stereo not drawn), the cell number change came out at 2.98%. Besides, the AC50 under setting [2] is 29.1 µM [falling, single point]. Regarding `COc1ccc(C(=O)Nn2cnnc2)c(OC)c1`, the cell number change is -69.3%. For the same compound, under setting [1], the AC50 was 29.1 µM [falling, single point]. As for `C/C(=N/NC(=O)c1cccs1)c1ccc(N2CCOCC2)cc1`, the cell number change came out at 20.8%. Under setting [2], the AC50 is 13 µM [rising, partial curve]. Take `CCN1CCN(c2nc(-c3ccccc3)c3ccccc3n2)CC1`: the cell number change is 0.952%. The AC50 under setting [2] was 6.51 µM [falling, partial curve, poor fit]. With `COc1ccc(N(C(=O)c2cnccn2)C(C(=O)NCc2ccccc2)c2ccc(O)cc2)cc1` (stereo not drawn), the AC50 under setting [2] was 6.51 µM [rising, partial curve, poor fit].

Take `COc1cc([N+](=O)[O-])ccc1NC(=O)Nc1ccc(C(=O)N2CCCC2)cc1`: the cell number change amounted to 25.2%. Also, the AC50 under setting [2] was 29.1 µM [rising, single point]. On to `CCC(=O)Nn1c(C2CCC2)nc2ccccc2c1=O`, for which the cell number change is 0.265%. The concentration at half-maximal activity (AC50) under setting [2] is 4.11 µM [falling, single point].

As for `O=C(CCCN1C(=O)C(c2ccccc2)Oc2cccnc21)NCc1ccccc1F` (stereo not drawn), the cell number change is -7.91%. Besides, the AC50 under setting [1] was 0.146 µM [rising, partial curve]. Regarding `CC(CN1CCOCC1)OC(=O)/C=C/c1ccccc1` (stereo not drawn), the cell number change came to 18.2%. Take `COC(=O)c1c(-c2c(Cl)cccc2Cl)noc1NC(=O)NN1CCOCC1`: the cell number change is -54.8%. Besides, the AC50 under setting [1] was 2.91 µM [falling, full curve]. Besides, the AC50 under setting [2] was 2.91 µM [falling, full curve].

Take `COc1ccc(NC(=O)COC(=O)c2ccc(-n3cnnn3)cc2)c([N+](=O)[O-])c1`: the cell number change is -50.1%. Under setting [1], the AC50 is 0.651 µM [falling, full curve]. Also, the AC50 under setting [2] was 0.92 µM [falling, full curve]. As for `COc1ccc(C(=O)NNC(=O)CSc2nnc(COc3ccc4ccccc4c3)n2C)cc1`, the cell number change turned out to be 33.9%. Moreover, the AC50 under setting [1] was 3.66 µM [rising, single point]. With `CCCN1CCc2c(sc(NC(=O)c3ccc(S(=O)(=O)N(C)c4ccccc4)cc3)c2C(=O)NC)C1`, the concentration at half-maximal activity (AC50) under setting [2] is 0.58 µM [falling, full curve]. For the compound `O=C1C(=O)N(Cc2cccnc2)C(c2cccc([N+](=O)[O-])c2)/C1=C(\O)c1ccc2c(c1)OCCO2` (stereo not drawn), the cell number change was -8.55%. In addition, under setting [2], the AC50 was 29.1 µM [rising, single point].

Consider `O=C(N1CCOCC1)C12CC3CC(C1)CC(C(=O)N1CCOCC1)(C3)C2`, for which the cell number change was found to be 19.9%. Besides, the concentration at half-maximal activity (AC50) under setting [1] was 2.91 µM [rising, full curve, poor fit]. In addition, the AC50 under setting [2] was 3.26 µM [rising, single point]. On to `COc1ccc(N2CCN(C(=O)CCc3ccc(S(=O)(=O)NC(C)(C)C)cc3)CC2)cc1`, for which the cell number change was -27.5%. Also, the half-maximal activity concentration (AC50) under setting [1] was 0.116 µM [falling, full curve, poor fit]. Regarding `O=C(CN1C(=O)NC(CCc2ccccc2)C1=O)NC1CC1` (stereo not drawn), the cell number change was -19.4%. Take `NC(=O)Nc1ccc(Oc2ncc(C(F)(F)F)cc2Cl)cc1`: the cell number change was 33.4%. In addition, the AC50 under setting [1] is 25.9 µM [rising, single point]. Take `CCC(=O)OCCNc1nc(-c2ccccc2)nc2ccccc12`: the cell number change is -33.6%. Also, the half-maximal activity concentration (AC50) under setting [1] was 32.6 µM [falling, partial curve, poor fit]. Besides, the concentration at half-maximal activity (AC50) under setting [2] was 32.6 µM [falling, partial curve]. For `COc1cc(C(=O)O/N=C(\N)Cc2ccc([N+](=O)[O-])cc2)cc(OC)c1OC`, the cell number change is 12.7%. In addition, the AC50 under setting [2] is 2.06 µM [rising, partial curve]. As for `COc1ccccc1NS(=O)(=O)c1ccc(C)c(C(=O)NCC(c2ccco2)N2CCCCC2)c1` (stereo not drawn), the cell number change is -5.52%. Also, the AC50 under setting [2] is 29.1 µM [rising, single point]. With `COc1cccc(C(=O)COc2ccccc2N2C(=O)C3C4C=CC(C4)C3C2=O)c1` (stereo not drawn), the cell number change was determined as 2.75%. For `COc1ccc(Nc2nccc(N(C)C)c2C#N)cc1`, the cell number change turned out to be 10.6%. Also, the AC50 under setting [2] is 1.64 µM [rising, partial curve, poor fit]. With `COc1ccccc1N(C)S(=O)(=O)c1ccc(C(=O)NCC2CCCCC2)cc1`, the cell number change came to 7.85%.

Take `COc1ccc(CSc2nc(O)cc(=O)n2CC(C)C)cc1F`: the cell number change amounted to 9.4%. Besides, the concentration at half-maximal activity (AC50) under setting [2] is 18.4 µM [rising, partial curve, poor fit]. Consider `Cc1c(Cl)cccc1NC(=O)Cn1c(CCC(=O)O)ccc1-c1ccccc1`, for which the cell number change is -3.55%. The AC50 under setting [2] was 7.31 µM [falling, partial curve]. Turning to `Cn1nnnc1Sc1ncnc2scc(-c3cc4ccccc4o3)c12`, the cell number change was -43.6%. For the same compound, the AC50 under setting [1] is 14.6 µM [falling, partial curve]. For the compound `c1ccc(Cn2c(SCc3nc4ccccc4s3)nnc2-c2ccco2)cc1`, the cell number change is -27.6%. For the same compound, the AC50 under setting [2] was 8.2 µM [rising, partial curve]. As to `CC1CN(C(=O)c2cc(S(=O)(=O)N3CCCC3)ccc2Cl)CC(C)O1` (stereo not drawn), the cell number change was found to be 13%. The AC50 under setting [2] is 2.91 µM [rising, partial curve].

On to `CCS(=O)(=O)n1nc(NCc2cccc(OC)c2)nc1NCc1cccc(OC)c1`, for which the cell number change is -0.992%. Besides, the AC50 under setting [2] was 20.6 µM [rising, single point].

In the case of `COc1cc(CNCc2ccccn2)ccc1OCc1ccc(Cl)cc1Cl`, the cell number change was -12%. The AC50 under setting [2] is 0.82 µM [falling, full curve, poor fit]. As for `Cc1ccc(C(=O)c2no[n+]([O-])c2C(=O)c2ccc(C)cc2)cc1`, the cell number change was -1.27%. For the same compound, under setting [2], the half-maximal activity concentration (AC50) is 18.4 µM [falling, single point]. `COc1ccc(C(=O)NCC(=O)N2CCN(c3ccc(F)cc3)CC2)cc1`: the cell number change was determined as 9.52%. With `Cc1ccc(CCNC(=O)CNS(=O)(=O)c2ccc3nc(C)sc3c2)cc1`, the AC50 under setting [2] was 6.51 µM [rising, single point].

As for `Oc1ccc(Br)cc1CNc1cccc2cccnc12`, the cell number change is -39.1%. Further, the AC50 under setting [1] is 29.1 µM [falling, single point]. Further, the half-maximal activity concentration (AC50) under setting [2] is 29.1 µM [falling, single point].

Take `CCOc1ccccc1NC(=O)c1nnn(-c2ccc3c(c2)OCCO3)c1N`: the cell number change is 13.2%. As to `CC(NC(=O)CN(c1cccc(C(F)(F)F)c1)S(C)(=O)=O)c1ccccc1` (stereo not drawn), the cell number change is -17%. Also, the half-maximal activity concentration (AC50) under setting [2] was 0.82 µM [falling, full curve, poor fit]. `Cc1cc(=O)n2[nH]c(N)c(N=Nc3ccccc3F)c2n1`: the cell number change turned out to be 5.27%. Also, the AC50 under setting [2] is 0.651 µM [rising, full curve, poor fit]. As for `Cc1ccc(S(=O)(=O)N(CC(=O)N=Nc2c(O)[nH]c3ccccc23)c2ccc(C)c(C)c2)cc1`, the cell number change is 8.68%. Besides, the AC50 under setting [2] is 2.59 µM [rising, single point]. Take `CC(=O)Nc1ccc(N(CC(=O)NC2CCCC2)C(=O)CCC(=O)Nc2cc(C)on2)cc1`: the cell number change was 7.66%. Consider `CCOc1ccc(NC(=O)CN2CCCC2c2cccs2)cc1S(=O)(=O)N1CCCC1` (stereo not drawn), for which the cell number change is -7.25%. The AC50 under setting [2] is 5.17 µM [falling, full curve].

As for `CCc1ccc(NC(=O)CSc2nc3ccccc3c(=O)n2CCCC(=O)N2CCCC2)cc1`, the cell number change was 83.5%. The AC50 under setting [1] is 1.46 µM [rising, full curve]. For the same compound, the AC50 under setting [2] is 1.84 µM [rising, full curve]. As to `CCOC(=O)C1=C(C)NC(=O)NC1c1ccc(C)o1` (stereo not drawn), the cell number change is 2.78%. Also, the AC50 under setting [2] was 0.164 µM [rising, full curve, poor fit]. Consider `CC(C)(C)c1ccc(OC(=O)c2ccccc2)cc1`, for which the cell number change amounted to 13%. Under setting [2], the AC50 was 29.1 µM [falling, single point]. For `Cc1cc(=O)oc2cc(OC(=O)CCN3C(=O)c4ccccc4C3=O)ccc12`, the cell number change was -22.9%.

Regarding `COc1ccc(Br)cc1C1Nc2cccc3cccc(c23)N1`, the cell number change is -43.8%. Further, under setting [1], the AC50 was 25.9 µM [falling, partial curve, poor fit]. The AC50 under setting [2] is 29.1 µM [falling, single point]. In the case of `CC(C)(C)c1ccc(C(=O)NC(=S)NCc2cccnc2)cc1`, the cell number change was -62.7%. Further, the AC50 under setting [1] was 18.4 µM [falling, partial curve]. In addition, the AC50 under setting [2] was 25.9 µM [falling, partial curve]. Consider `CCN(CC)C(=O)CSc1nnc(-c2c[nH]c3ccccc23)o1`, for which the cell number change is -29.6%. On to `O=S(=O)(Cc1ccccc1)c1cnc2ccccc2n1`, for which the cell number change stood at 22.1%. The AC50 under setting [2] was 1.3 µM [falling, partial curve].

As to `O=C(c1ccc2ccccc2n1)N1CCN(Cc2c(F)cccc2Cl)CC1`, the cell number change amounted to 22.9%. The AC50 under setting [1] was 3.66 µM [rising, full curve, poor fit]. Turning to `COc1cccc(/C=C2\SC(=S)N(C(C)C(=O)NC3C=CS(=O)(=O)C3)C2=O)c1` (stereo not drawn), the cell number change stood at 23.3%. The concentration at half-maximal activity (AC50) under setting [2] is 29.1 µM [falling, partial curve, poor fit]. As for `CC1CCN(C(=O)C2CCN(S(=O)(=O)c3cccs3)CC2)CC1`, the cell number change came to 1.8%. Consider `CC(OC(=O)CN1C(=O)NC2(CCCC2)C1=O)c1ccc(F)cc1` (stereo not drawn), for which the cell number change was -11.3%. Moreover, the AC50 under setting [1] was 0.231 µM [falling, full curve, poor fit]. As for `CC(C)CC(=O)N1CCN(C(=O)c2ccco2)CC1`, the cell number change is -21.9%. The AC50 under setting [2] was 32.6 µM [falling, single point]. As to `CC(C)c1ccccc1`, the cell number change is -46.6%. For the same compound, the AC50 under setting [1] was 9.2 µM [falling, single point]. Besides, the AC50 under setting [2] was 25.9 µM [falling, single point]. Take `CNc1c(NS(=O)(=O)c2ccc(Cl)cc2)c(=O)oc2ccccc12`: the cell number change was 25.7%. Under setting [2], the AC50 is 0.58 µM [rising, single point]. For the compound `C/C(N)=C(/C#N)C(=O)COC(=O)CC1CCCC1`, the cell number change came out at 11.7%.

As for `COc1ccc2nc(Nc3ccccc3)sc2c1`, the cell number change was -31.9%. For the same compound, under setting [1], the AC50 is 0.0058 µM [falling, full curve, poor fit]. The AC50 under setting [2] is 0.00461 µM [falling, full curve, poor fit].

By AC50 is commonly meant the midpoint of the concentration-response curve, whichever way the signal moves.

The values are drawn from PubChem BioAssay AID2685 (National Center for Advancing Translational Sciences (NCATS), 2010).
